Data as given in PubChem BioAssay AID1259298 (Sanger Institute, 2017)
Screen: 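Kinases whose loss strengthens killing by BYL719, cetuximab or trametinib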 (primary screen). Cells: HT55 human colorectal cancer cell line. Reagent: siRNA pool against human genes. Treatment: anchor drug BYL719 1 µM, cetuximab 5 µg/ml or trametinib 10 nM, or DMSO vehicle alone. Read-out: 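Mean viability over replicates versus non-targeting pool, a robust z-score without drug, and per-drug synergy scores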. Reading the numbers: robust z-score, knock-down alone: higher = more cells remaining; low means essential gene; viability vs control pool, no drug: higher = more viable cells; synergy score with BYL719 and synergy score with cetuximab and synergy score with trametinib: higher = stronger synthetic lethality with the drug. Hit rule: 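Essential when the robust z-score for knock-down alone with DMSO is below -3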. Meaning of the calls: active = essential (knock-down alone); inactive = no change alone.
Shown is one part, drawn at random, of 794 reagents. 20 of all reagents (2.5%) were called active. 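Calls rest only on the knock-down-alone score; drug synergy scores played no part in them.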 Viability is capped at 1. Not given: the amount of reagent, the time to read-out.

| target | robust z-score, knock-down alone | viability vs control pool, no drug (fraction) | synergy score with BYL719 | synergy score with cetuximab | synergy score with trametinib | call |
| --- | --- | --- | --- | --- | --- | --- |
| NR2F2 | 0.58 | 1 | -0.127 | -0.0477 | 0.0365 | inactive |
| BTK | -0.889 | 0.885 | -0.265 | -0.0464 | 0.149 | inactive |
| EFNA5 | 0.58 | 1 | -0.177 | -0.211 | -0.0932 | inactive |
| RUNX1 | -1.09 | 0.869 | -0.0916 | -0.0132 | -0.114 | inactive |
| MYO3A | -1.45 | 0.841 | -0.0558 | -0.303 | -0.135 | inactive |
| ACSL6 | 0.58 | 1 | -0.0746 | -0.18 | -0.0276 | inactive |
| PIK3C2A | 0.365 | 0.983 | 0.0288 | 0.168 | 0.114 | inactive |
| MYH10 | 0.58 | 1 | -0.195 | -0.0894 | -0.0532 | inactive |
| TRIB3 | -1.61 | 0.829 | -0.149 | -0.166 | -0.0366 | inactive |
| CDK10 | 0.58 | 1 | -0.111 | -0.149 | -0.0998 | inactive |
| PDGFRB | -1.88 | 0.808 | 0.0114 | -0.229 | -0.0305 | inactive |
| MAP3K3 | -0.294 | 0.932 | -0.206 | -0.0255 | 0.051 | inactive |
| UCK1 | 0.58 | 1 | -0.272 | -0.142 | -0.0176 | inactive |
| NME5 | -1.19 | 0.862 | -0.301 | -0.192 | -0.141 | inactive |
| TPD52L3 | 0.58 | 1 | -0.107 | -0.194 | -0.118 | inactive |
| CAMK2D | 0.58 | 1 | -0.229 | -0.211 | -0.119 | inactive |
| ITK | 0.58 | 1 | -0.272 | -0.131 | -0.117 | inactive |
| CDKL1 | 0.58 | 1 | -0.16 | -0.152 | 0.0596 | inactive |
| CASP8 | 0.58 | 1 | -0.198 | -0.211 | -0.0457 | inactive |
| PXK | -0.311 | 0.93 | -0.0913 | -0.128 | 0.00661 | inactive |
| N4BP2 | 0.0832 | 0.961 | -0.205 | 0.0481 | -0.0306 | inactive |
| MOK | 0.156 | 0.967 | -0.167 | -0.238 | 0.0253 | inactive |
| NUCKS1 | 0.58 | 1 | -0.272 | -0.211 | -0.194 | inactive |
| PFKM | 0.222 | 0.972 | -0.0612 | -0.0924 | -0.0434 | inactive |
| KSR1 | -1.87 | 0.808 | -0.164 | 0.113 | 0.119 | inactive |
| ACVR1 | -2.07 | 0.793 | -0.196 | -0.155 | -0.0641 | inactive |
| EPHB2 | 0.58 | 1 | -0.19 | -0.0689 | -0.0812 | inactive |
| SGK2 | 0.164 | 0.967 | 0.00568 | -0.00853 | 0.0539 | inactive |
| ZC3H11A | 0.0821 | 0.961 | -0.022 | 0.0764 | 0.148 | inactive |
| STK39 | 0.58 | 1 | -0.0613 | -0.211 | -0.0129 | inactive |
| TSSK3 | 0.58 | 1 | -0.205 | -0.169 | 0.0132 | inactive |
| PIK3C2B | 0.58 | 1 | -0.263 | -0.211 | 0.0377 | inactive |
| ABL2 | 0.58 | 1 | -0.107 | -0.0752 | -0.0133 | inactive |
| PIK3CG | 0.58 | 1 | -0.189 | -0.0415 | 0.0257 | inactive |
| TRIO | 0.58 | 1 | -0.203 | -0.0129 | -0.0485 | inactive |
| UCKL1 | 0.224 | 0.972 | -0.166 | -0.0305 | 0.00527 | inactive |
| PTPRU | -0.671 | 0.902 | -0.137 | -0.172 | -0.151 | inactive |

Sorted by “robust z-score, knock-down alone” (ascending): some entries from above
| target | robust z-score, knock-down alone | viability vs control pool, no drug (fraction) | synergy score with BYL719 | synergy score with cetuximab | synergy score with trametinib | call |
| --- | --- | --- | --- | --- | --- | --- |
| TPD52L3 | 0.58 | 1 | -0.107 | -0.194 | -0.118 | inactive |
| CAMK2D | 0.58 | 1 | -0.229 | -0.211 | -0.119 | inactive |
| ITK | 0.58 | 1 | -0.272 | -0.131 | -0.117 | inactive |
| CDKL1 | 0.58 | 1 | -0.16 | -0.152 | 0.0596 | inactive |

The list goes on:
| target | robust z-score, knock-down alone | viability vs control pool, no drug (fraction) | synergy score with BYL719 | synergy score with cetuximab | synergy score with trametinib | call |
| --- | --- | --- | --- | --- | --- | --- |
| CUL1 | 0.425 | 0.988 | -0.119 | -0.147 | 0.0172 | inactive |
| RAD21 | 0.114 | 0.964 | -0.0768 | -0.171 | -0.0238 | inactive |
| CAMK1 | 0.58 | 1 | -0.0258 | -0.0581 | 0.0146 | inactive |
| EIF2AK1 | 0.58 | 1 | -0.0481 | -0.211 | 0.079 | inactive |
| CDK18 | 0.131 | 0.965 | -0.0979 | -0.0528 | 0.0304 | inactive |
| PANK4 | -0.583 | 0.909 | -0.00445 | -0.00361 | 0.0804 | inactive |
| AK5 | 0.337 | 0.981 | -0.145 | -0.0837 | 0.176 | inactive |
| ITSN1 | 0.58 | 1 | -0.272 | -0.211 | -0.0486 | inactive |
| PDK2 | 0.58 | 1 | -0.0609 | -0.0627 | -0.0755 | inactive |
| NME7 | 0.58 | 1 | -0.216 | -0.211 | -0.171 | inactive |
| EXOSC10 | -0.299 | 0.931 | -0.0708 | -0.0701 | -0.0224 | inactive |
| AXIN2 | 0.58 | 1 | -0.184 | -0.155 | 0.00363 | inactive |
| STK38L | -0.476 | 0.917 | -0.095 | -0.106 | 0.108 | inactive |
| PBK | 0.58 | 1 | -0.182 | -0.146 | 0.0572 | inactive |
| CHD4 | -3.7 | 0.666 | -0.0677 | 0.0184 | 0.043 | active |
| STK38 | 0.58 | 1 | -0.107 | -0.0824 | 0.062 | inactive |
| POLR2B | -3.66 | 0.669 | -0.188 | -0.168 | 0 | active |
| CERK | 0.58 | 1 | -0.272 | -0.0868 | -0.0706 | inactive |
| ROR1 | 0.58 | 1 | -0.132 | 0.0318 | -0.0281 | inactive |
| CDKN2B | 0.58 | 1 | -0.195 | -0.127 | -0.111 | inactive |
| TYRO3 | 0.58 | 1 | -0.0473 | -0.0999 | -0.191 | inactive |
| PRKAG1 | 0.58 | 1 | -0.272 | -0.211 | -0.0397 | inactive |
| AK1 | 0.346 | 0.982 | -0.177 | -0.0477 | 0.0868 | inactive |
| PSKH2 | -1.25 | 0.857 | -0.237 | -0.0395 | 0.0376 | inactive |
| PANK1 | 0.58 | 1 | -0.232 | -0.211 | -0.074 | inactive |
| PIK3C3 | 0.58 | 1 | -0.18 | 0.0191 | -0.046 | inactive |
